In PubChem BioAssay AID2685 (National Center for Advancing Translational Sciences (NCATS), 2010):
The list shows a part of the results. These are further read-outs of the screen, such as a control signal, another cell line or another target. No call is given for them. Compounds called inactive in the main read-out are mostly missing here. Words in brackets tell the shape of the fitted curve; partial curves, single points and poor fits give uncertain potencies.

Assay: qHTS Assay for Lipid Storage Modulators in Drosophila S3 Cells;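 on cell number change: cells counted by Cell Tracker Red CMTPX staining in the red channel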
Conditions: BODIPY lipid droplet fluorescence, 18-24 h; for cell number change: measured here: cell count max response, cells fed with added oleic acid
Procedure, shortened: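 Drosophila S3 cells got compounds at several concentrations plus oleic acid (400 uM solution). Laser-scanning cytometry with 488 nm excitation read lipid droplets at 500-530 nm and cells at 575-640 nm. Percent activity was relative to 20 uM Triacsin C.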

[1] = measured here: cell number channel AC50, cells fed with added oleic acid
[2] = measured here: lipid fluorescence (Fed channel) AC50, cells fed with added oleic acid

Structure (SMILES) | cell number change | AC50 [1] | AC50 [2]
C/C(=N/NC(=O)c1cccs1)c1cccc(NC(=O)C2CC2)c1 | -38.7% | 36.6 µM [falling, partial curve, poor fit] | –
O=c1[nH]c(NC2CCCCC2)nnc1Cc1ccccc1 | -37% | 29.1 µM [falling, single point] | 29.1 µM [falling, single point]
CCCCOC(=O)CSc1nnc(-c2cc(OC)c(OC)c(OC)c2)o1 | -6.96% | – | 29.1 µM [rising, single point]
O=C(Nc1ccc(-c2nnco2)cc1)c1ccccc1 | 0.146% | – | –
O=S(=O)(c1cnc(Cl)c(Cl)c1)N1CCN(c2ncccn2)CC1 | 0.661% | 6.51 µM [falling, single point] | –
COc1cc(NC(=O)c2ccc3c(SCC(=O)O)c4c(nc3c2)CCC4)cc(OC)c1OC | 16.8% | – | 0.58 µM [rising, single point]
COC(=O)c1ccc(CSc2cc(C)c3ccccc3n2)o1 | 38.9% | – | –
Cc1ccc(C(=O)OCC(=O)NCc2cccs2)cc1C | 22% | – | 29.1 µM [falling, single point]
C=CCCO[C@@H]1O[C@@H](C)[C@H](O)C[C@H]1O | -0.241% | – | 6.51 µM [falling, partial curve, poor fit]
CCOC(=O)CNC(=O)c1ccccc1Br | -8.91% | – | 4.11 µM [falling, full curve, poor fit]
CC1=CN2C(=N)/C(=C/c3ccc(Sc4ccc(Cl)cc4)o3)C(=O)N=C2S1 | 1.8% | – | 29.1 µM [falling, single point]
S=c1[nH]nc(C2CCCCC2)n1/N=C/C(Cl)=C\c1ccccc1 | -50% | 8.2 µM [falling, partial curve] | –
O=C(CSc1nnc(CNc2ccc(Cl)cc2)o1)Nc1nc2c(s1)CCCC2 | -1.12% | – | 1.3 µM [rising, full curve]
O=C(COC(=O)c1ccc2ccccc2n1)NC1CCCCC1 | -41.9% | 29.1 µM [falling, partial curve, poor fit] | –
N#Cc1ccccc1/C=N/Nc1nc(-c2ccccc2)c2cc(Br)ccc2n1 | 146% | 29.1 µM [rising, single point] | 29.1 µM [rising, single point]
CCOC(=O)CSc1nc(Nc2ccc3c(c2)OCO3)c2ccccc2n1 | 10.7% | – | 1.64 µM [rising, partial curve]
C/C(=N/Nc1ccnc2cc(Cl)ccc12)c1ccc(O)cc1 | -57.2% | 23.1 µM [falling, single point] | –
COc1ccc(C(=O)Nc2ccccc2C(=O)N/N=C/c2ccccc2OC)cc1 | 0.35% | – | 29.1 µM [rising, single point]
N=c1c2c(n(Cc3ccc([N+](=O)[O-])cc3)c3c1CCC3)CCCC2 | -0.528% | 0.461 µM [falling, partial curve, poor fit] | 0.461 µM [falling, partial curve, poor fit]
Cc1ccc(S(=O)(=O)N2CCN(C(=O)N3CCOCC3)C2C(C)C)cc1 (configuration not stated) | -50.1% | 29.1 µM [falling, single point] | 14.6 µM [falling, partial curve, poor fit]
CN1Cc2c(N3CCOCC3)nc(SCc3ccccc3)c(C#N)c2CC1(C)C | -32.1% | 32.6 µM [falling, single point] | –

Structure (SMILES) | cell number change | AC50 [1] | AC50 [2]
O=c1cc(N2CCN(c3ccccc3)CC2)[nH]c(=O)n1C1CCCCC1 | -30.1% | 9.2 µM [falling, partial curve, poor fit] | –
CC(C)(C)NS(=O)(=O)c1ccc(NC(=S)NC(=O)C2CCC2)cc1 | -15.6% | – | –
CN1CCN(CC(=O)Nc2cccc([N+](=O)[O-])c2)CC1 | -20.4% | – | 3.66 µM [falling, full curve]
Cc1cc(C)c(NC(=O)Cn2nnc(C(=O)NCc3ccc4c(c3)OCO4)c2N)c(C)c1 | 38.2% | 1.16 µM [rising, partial curve, poor fit] | –
O=C1c2ccccc2C(=O)N1OCc1ccc(Cl)cc1 | 1.32% | – | –
CC1CCN(CC(=O)NCc2ccco2)CC1 | 21.8% | – | –
COC(=O)c1ccccc1NC(=O)Cc1nc(-c2ccccc2)sc1-c1ccc(C)cc1 | -11.8% | – | 16.4 µM [falling, single point]
O=C(NCC1CCCO1)NC1CCCCC1 (configuration not stated) | 36.1% | – | –
CC1=NN(c2ccccc2)C(=O)/C1=C\c1sccc1C | -4.91% | – | 6.51 µM [falling, single point]
Cc1ccc(OCCn2cc(/C=C/C(=O)O)c3ccccc32)cc1 | – | – | 6.51 µM [falling, partial curve, poor fit]
CCC(=O)c1ccccc1OCCSc1nc(C)cc(=O)[nH]1 | 4.3% | 0.116 µM [falling, full curve, poor fit] | –
CC(C)C(NC(=O)C(C)N1C(=O)c2ccccc2C1=O)c1ccccc1 (configuration not stated) | -18.3% | – | 18.4 µM [falling, single point]
CC1CCCCC1NC(=O)C1CCC(CNS(=O)(=O)c2ccccc2)CC1 (configuration not stated) | 34.7% | 29.1 µM [rising, single point] | –
CCC(CCC(=O)Nc1cccc([N+](=O)[O-])c1)C(=O)O (configuration not stated) | 18.6% | – | –
CC1=C(C)CC(C(=O)Nc2nc(C)cs2)C(C(=O)O)C1 (configuration not stated) | 4.23% | – | 29.1 µM [rising, single point]
O=C(Nc1ccc2c(c1)OCCO2)c1cccc(Br)c1 | -5.82% | – | 7.31 µM [rising, single point]
COc1ccc(-n2ncc3c(NCc4ccc5c(c4)OCO5)ncnc32)cc1 | – | – | 5.17 µM [rising, single point]
CCc1c(C)sc(NC(=O)c2ccccc2[N+](=O)[O-])c1C(N)=O | -3.41% | – | 32.6 µM [rising, single point]
CCc1ccccc1NC(=O)CNC(=O)c1n[nH]c(=O)c2ccccc12 | -7.94% | – | –
C=CCn1c(SCC(=O)NCCCC)nc2scc(-c3ccco3)c2c1=O | -46% | 29.1 µM [falling, single point] | 29.1 µM [falling, single point]

Record cards (already shown).
`Cc1ccc(OCCn2cc(/C=C/C(=O)O)c3ccccc32)cc1` as listed: AC50 [2]: 6.51 µM [falling, partial curve, poor fit]
`CC1CCN(CC(=O)NCc2ccco2)CC1` as listed: cell number change: 21.8%
